{"source": "PubChem BioAssay AID504467", "about": "(National Center for Advancing Translational Sciences (NCATS), 2011)", "note": "Among all 330,000 compounds or so, about 7,700 (2.3%) were called active. The inconclusive results got no clear call from the source; some entries with a clear call stand among them for comparison. The call rests on the fitted dose curve; in most records, active means well fitted inhibition curve with a large enough effect; inconclusive means small, poorly fitted or top-dose-only effect, or effect the other way; inactive means flat fitted curve, though single readings scatter. A potency beside an inconclusive call is a rough fit, not a confirmed value. Potency means the concentration at half of the fitted maximal effect.", "data": [{"assay": "qHTS screen for small molecules that inhibit ELG1-dependent DNA repair in human embryonic kidney (HEK293T) cells expressing luciferase-tagged ELG1; further: nearly all actives have a fitted effect of over 55% in size", "conditions": "HEK293T ELG1-luciferase reporter, luminescence, 16 h, DNA damage induced by 5-fluorouridine; series mostly up to 46.1 µM", "procedure,_shortened": "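Step one: seed 2,000 cells per well. Step two: pin-transfer compound or DMSO alongside 5-fluorouridine. Step three: incubate 16 hr, 37 °C, 5% CO2. Step four: add ONE-Glo, wait 30 min, read luminescence.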", "values": [{"smiles": "COc1ccc(/C=C\\C(=O)CC(O)(c2ccccc2)C(F)(F)F)cc1", "note": "(stereo unspecified)", "Potency": "inactive"}, {"smiles": "O=C(Nc1ccc(Cl)cc1)Nc1ccc(-c2cnco2)cc1", "Potency": "inactive"}, {"smiles": "CCN(CC(=O)NCc1cccs1)C(=O)Cc1ccc(Cl)c(Cl)c1", "Potency": "inactive"}, {"smiles": "Cc1ccc(/C=C2\\SC(=S)N(C(Cc3ccccc3)C(=O)O)C2=O)cc1", "note": "(stereo unspecified)", "Potency": "inconclusive: 32.6 µM [activator, partial curve, poor fit]"}, {"smiles": "COc1cccc(OCC(=O)NNC(=O)C(=O)Nc2cccc(C)c2)c1", "Potency": "inconclusive: 20.6 µM [activator, partial curve]"}, {"smiles": "COc1cccc(-c2nc(CS(=O)(=O)CC(=O)NCCC(C)C)c(C)o2)c1", "Potency": "inconclusive: 9.2 µM [inhibitor, partial curve, poor fit]"}, {"smiles": "Cc1ccc(Cl)cc1N1CCN(C(=O)c2ccc(CN3CCOCC3)cc2)CC1", "Potency": "inconclusive: 8.2 µM [inhibitor, single point]"}, {"smiles": "O=C(NCc1ccccc1)N(Cc1cc2cc3c(cc2[nH]c1=O)OCO3)CC1CCCO1", "note": "(stereo unspecified)", "Potency": "inconclusive: 32.6 µM [inhibitor, partial curve, poor fit]"}, {"smiles": "O=C(NC(Nc1nc2ccc([N+](=O)[O-])cc2s1)(C(F)(F)F)C(F)(F)F)c1ccccc1Cl", "Potency": "inconclusive: 0.82 µM [inhibitor, partial curve, poor fit]"}, {"smiles": "CCc1ccc2[nH]c(O)c(N=Nc3nc(-c4ccccc4)cs3)c2c1", "Potency": "inactive"}, {"smiles": "Cc1ccc(S(=O)(=O)N2CCN(C(=O)CSc3ccc(Cl)cc3)CC2)cc1", "Potency": "inconclusive: 13 µM [inhibitor, partial curve]"}, {"smiles": "Cc1ccc(-c2nc(Nc3ccc(N4CCOCC4)cc3)c3ccccc3n2)cc1", "Potency": "active: 23.1 µM"}, {"smiles": "COc1ccc(CC(=O)Nc2ccc(-c3noc(-c4ccc(Cl)cc4)n3)cc2)cc1", "Potency": "inconclusive: 29.1 µM [activator, single point]"}, {"smiles": "COc1ccccc1CNC(=O)C1=C(C)C(=O)OC12CCC(C)CC2", "note": "(stereo unspecified)", "Potency": "inactive"}, {"smiles": "CCC(CC)NC(=O)COC(=O)c1ccc(NS(=O)(=O)c2ccc3c(c2)OCCO3)cc1", "Potency": "inactive"}, {"smiles": "CCc1ccc(C2C(C#N)=C(N)N(N(C)C)C3=C2C(=O)CCC3)cc1", "note": "(stereo unspecified)", "Potency": "inconclusive: 18.3 µM [activator, single point]"}, {"smiles": "CC(=O)Oc1ccc(-c2ccc(C(=O)Nc3cccc(S(=O)(=O)N4CCOCC4)c3)cc2)cc1", "Potency": "inconclusive: 8.2 µM [inhibitor, partial curve]"}, {"smiles": "COc1cc2c(cc1OC)C(C)N(C(=O)CCNC(=O)c1ccccc1)CC2", "note": "(stereo unspecified)", "Potency": "inactive"}, {"smiles": "O=C(c1cccnc1)N1CCN(S(=O)(=O)c2ccc(F)cc2)CC1", "Potency": "inconclusive: 29.1 µM [inhibitor, single point]"}, {"smiles": "O=C(Nc1ccc(Cl)cc1)Nc1cccc(C(=O)O)c1", "Potency": "inconclusive: 0.326 µM [activator, partial curve, poor fit]"}, {"smiles": "COc1cc(C(=O)Nc2nc3ccc(C)cc3s2)ccc1OCc1c(C)noc1C", "Potency": "inconclusive: 29.1 µM [activator, single point]"}, {"smiles": "CCOc1cccc(C(=O)Nc2cccc(C(=O)NCC(C)C)c2)c1", "Potency": "inconclusive: 29.1 µM [inhibitor, single point]"}, {"smiles": "CCOc1cc(N2CCOCC2)c(OCC)cc1NC(=O)c1ccc(C)s1", "Potency": "inconclusive: 20.6 µM [inhibitor, partial curve]"}, {"smiles": "c1ccc2c(c1)CCN(c1nc3cc4c(cc3s1)OCO4)C2", "Potency": "inconclusive: 2.82 µM [activator, partial curve, poor fit]"}, {"smiles": "O=C1C(NS(=O)(=O)c2cccs2)=C(N2CCN(c3cccc(Cl)c3)CC2)C(=O)c2ccccc21", "Potency": "inactive"}, {"smiles": "O=C(NCc1ccc(N2CCCC2=O)cc1)C1CCC(=O)N(Cc2ccccc2F)C1", "note": "(stereo unspecified)", "Potency": "inactive"}, {"smiles": "Cc1ccc2c(c1)N(C(=O)CCC(=O)N1CCN(c3ccccc3)CC1)CCO2", "Potency": "inactive"}, {"smiles": "CC[C@@]1(C(=O)OC)N[C@H](CN(C)S(=O)(=O)c2ccc(OC)cc2)[C@@H]2C(=O)N(C)C(=O)[C@@H]21", "Potency": "inactive"}, {"smiles": "CCCN(CC1CC1)C(=S)NC(=O)c1ccc(S(=O)(=O)N2CCOCC2)cc1", "Potency": "inconclusive: 16.4 µM [inhibitor, single point]"}, {"smiles": "Cc1ccc(-c2ccnc(=S)[nH]2)cc1", "Potency": "inactive"}, {"smiles": "Cc1ccc(Cc2cnc(N3C(=N)SC(C)C3=O)s2)cc1", "note": "(stereo unspecified)", "Potency": "inconclusive: 29.1 µM [inhibitor, single point]"}, {"smiles": "Cc1ccc(C(=O)N/N=C\\c2ccc(-c3ccc(Cl)cc3)o2)cn1", "Potency": "inactive"}, {"smiles": "O=C(CC(Nc1ccc(Cl)cc1Cl)C(=O)O)c1ccccc1", "note": "(stereo unspecified)", "Potency": "inconclusive: 23.1 µM [activator, partial curve]"}, {"smiles": "CS(=O)(=O)N1CCN(c2ncccn2)CC1", "Potency": "inconclusive: 29.1 µM [activator, partial curve, poor fit]"}, {"smiles": "COc1ccc(-c2cc3ccc(OC)cc3cn2)cc1", "Potency": "inconclusive: 0.517 µM [activator, full curve]"}, {"smiles": "COc1ccc(S(=O)(=O)N2CCCCCC2)cc1C(=O)N1CCN(c2ccccc2C)CC1", "Potency": "inconclusive: 12.6 µM [inhibitor, partial curve, poor fit]"}, {"smiles": "c1ccc(-c2nc(N3CCCCCC3)nc(-n3ccnc3)n2)cc1", "Potency": "inconclusive: 14.6 µM [inhibitor, partial curve]"}, {"smiles": "C/C(=N/NC(=O)c1ccc(C)s1)c1cccnc1", "Potency": "inconclusive: 16.4 µM [activator, partial curve]"}, {"smiles": "O=C(O)C1C2C=CC3(CN(c4cccc(C(F)(F)F)c4)C(=O)C13)O2", "note": "(stereo unspecified)", "Potency": "inconclusive: 29.1 µM [activator, single point]"}, {"smiles": "O=C(CCCc1ccccc1)Nc1ccc2c(c1)OCCO2", "Potency": "inconclusive: 1.83 µM [activator, full curve]"}, {"smiles": "Cc1cc(C)c2c(-n3cccc3)c(C(=O)NNS(=O)(=O)c3ccc(Br)cc3)sc2n1", "Potency": "inactive"}, {"smiles": "COc1ccc(CCNc2nc3ccccc3n3nnnc23)cc1OC", "Potency": "inconclusive: 32.6 µM [activator, partial curve, poor fit]"}, {"smiles": "Cc1ccc(S(=O)(=O)c2nc(Nc3ccccc3)sc2Cl)cc1", "Potency": "inactive"}, {"smiles": "O=C(NCC1CCCO1)/C(=C/c1cn(-c2ccccc2)nc1-c1cccnc1)NC(=O)c1ccccc1", "note": "(stereo unspecified)", "Potency": "active: 20.6 µM"}, {"smiles": "Cc1ccccc1C(=O)NC(=S)Nc1ccc(N2CCOCC2)cc1", "Potency": "inactive"}, {"smiles": "COc1ccc(CN(C)C(=O)c2ccc(NS(=O)(=O)c3ccc4[nH]c(=O)[nH]c4c3)cc2)c(OC)c1OC", "Potency": "inactive"}, {"smiles": "Cn1c(=O)c(C(=O)CCl)c(N)n(Cc2ccccc2)c1=O", "Potency": "inconclusive: 9.2 µM [inhibitor, partial curve]"}, {"smiles": "O=C(Cc1ccc(-c2ccccc2)cc1)Nc1ccccc1", "Potency": "inactive"}, {"smiles": "O=C(Oc1ccc(OC(=O)c2ccco2)c(S(=O)(=O)c2ccc(Br)cc2)c1)c1ccco1", "Potency": "inactive"}, {"smiles": "COc1ccc(N2CCN(CC(=O)c3ccc(Cl)cc3)CC2)cc1", "Potency": "inconclusive: 5.8 µM [inhibitor, single point]"}, {"smiles": "O=c1c2c3nc4ccccc4nc3n(/N=C/c3ccco3)c2ncn1CCC1=CCCCC1", "Potency": "inconclusive: 29.1 µM [inhibitor, single point]"}, {"smiles": "CCOC(=O)c1cc(S(=O)(=O)N2CCC(C)CC2)cn1C", "Potency": "inactive"}, {"smiles": "COc1ccc(C2CC(C(F)(F)F)n3ncc(C(=O)NCc4cccnc4)c3N2)cc1OC", "note": "(stereo unspecified)", "Potency": "inconclusive: 7.94 µM [inhibitor, partial curve]"}, {"smiles": "CCCCCCCCCCCC(=O)c1c(O)cccc1O", "Potency": "inactive"}, {"smiles": "Cc1ccc(C)c(NC(=O)CN(C)C(=O)c2ccccc2Cc2ccccc2)c1", "Potency": "inconclusive: 8.2 µM [inhibitor, partial curve]"}, {"smiles": "COC(=O)c1cccc(NC(N)=S)c1", "Potency": "inactive"}, {"smiles": "O=C(COc1ccc(Cl)cc1)NCc1cn2cc(Cl)ccc2n1", "Potency": "inactive"}, {"smiles": "CCC(CCC(=O)Nc1cccc(C(=O)O)c1)C(=O)O", "note": "(stereo unspecified)", "Potency": "inconclusive: 29.1 µM [activator, partial curve, poor fit]"}, {"smiles": "C[C@H](CO)N1C[C@H](C)[C@@H](CN(C)S(=O)(=O)c2ccccc2)Oc2c(NS(=O)(=O)c3ccccc3)cccc2C1=O", "Potency": "inactive"}, {"smiles": "Cc1ccc(N/N=C2\\CCS(=O)(=O)c3sccc32)cc1", "Potency": "inactive"}, {"smiles": "C/C(=N/NC(=O)CNC(=O)CCc1ccccc1)c1ccc(Cl)c(Cl)c1", "Potency": "inactive"}, {"smiles": "COc1ccc(NS(=O)(=O)c2cc(NC(=O)c3ccc(F)cc3)ccc2OC)cc1", "Potency": "inconclusive: 23.1 µM [inhibitor, single point]"}, {"smiles": "CCn1c(SCC(=O)Nc2ccc(C)cc2)nc2nc3c(cc2c1=O)CCCC3", "Potency": "active: 18.4 µM"}, {"smiles": "O=C(c1cc2cc(Cl)ccc2o1)N1CCCC1", "Potency": "inconclusive: 20.6 µM [activator, partial curve]"}, {"smiles": "CCN(CC)S(=O)(=O)c1ccc2c(c1)nc(CCC(=O)O)n2CC", "Potency": "inactive"}, {"smiles": "O=c1c2cc(N3CCOCC3)ccc2[nH]c(=S)n1CCCN1CCCCC1", "Potency": "inactive"}, {"smiles": "CCOc1cc(C(=O)Nc2cc3c(cc2N2CCCC2)n(C)c(=O)n3C)cc(OCC)c1OCC", "Potency": "inconclusive: 1.83 µM [inhibitor, full curve]"}, {"smiles": "COc1ccc(NC(=O)C2CCCN2S(=O)(=O)c2ccc3c(c2)CC(C)N3C(C)=O)cc1OC", "note": "(stereo unspecified)", "Potency": "inactive"}, {"smiles": "O=C(O)c1cc(-c2cccs2)nn1-c1cccc(Cl)c1", "Potency": "inconclusive: 16.4 µM [inhibitor, partial curve, poor fit]"}, {"smiles": "COc1ccc(Nc2nc(C)nc3c2oc2ccccc23)c(OC)c1", "Potency": "inconclusive: 20.6 µM [inhibitor, partial curve, poor fit]"}, {"smiles": "CCOC(=O)c1c(NC(=O)C2c3ccccc3Oc3ccccc32)sc(C(N)=O)c1C", "Potency": "inconclusive: 25.9 µM [inhibitor, partial curve]"}]}]}
